Experimental data: PubChem BioAssay AID1259425 (University of Nebraska Medical Center, 2018)

Screen: 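Compare each knockdown with KSR1 silencing using changes in marker transcripts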 (primary screen)
System: HCT116 human colon cancer cells
Knock-down reagent: siRNA pool against human genes, 50 nM siRNA
Read-out: 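After 50 nM siRNA pool, branched-DNA assay measures six marker transcripts per well, minus blank, normalised to the geometric mean of two housekeeping transcripts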
Scale: BNIP3L mRNA: higher = more BNIP3L transcript after knockdown
Shown is a random part of about 14,000 reagents. Not all columns of the deposit are shown. The record does not give: the time to read-out.

| target gene | PubChem SID | BNIP3L mRNA, set 1 |
| --- | --- | --- |
| TAF11 | SID363996536 | 0.105 |
| TFDP2 | SID363997108 | 0.099 |
| RAB3D | SID363995278 | 0.0958 |
| GPER1 | SID363992763 | 0.0777 |
| RASL12 | SID364000197 | 0.217 |
| C6 | SID363991402 | 0.133 |
| THAP12 | SID363995664 | 0.131 |
| DRC9 | SID364003857 | 0.427 |

As entered above.
Result of THAP12 [SID363995664] in “BNIP3L mRNA, set 1”: 0.131
For “BNIP3L mRNA, set 1”, GPER1 [SID363992763] is entered as 0.0777

Continued.
| target gene | PubChem SID | BNIP3L mRNA, set 1 |
| --- | --- | --- |
| SYK | SID363994313 | 0.218 |
| ASCL2 | SID363996097 | 0.109 |
| SOX17 | SID364002441 | 0.0959 |
| RNF5 | SID363997667 | 0.11 |
| TFEC | SID363998174 | 0.0666 |
| KCNE4 | SID364004492 | 0.0971 |
| UTY | SID363997839 | 0.226 |
| SSR1 | SID363994284 | 0.0599 |
| C8orf33 | SID364002639 | 2.39 |
| PPIL1 | SID363999833 | 0.0785 |
| CUEDC2 | SID364002701 | 0.149 |
| CNTNAP4 | SID364004372 | 0.143 |
